Assay results: PMC4379586
These are yes or no findings as the source states them, for the method shown. Binding seen in cells or lysates may run through a third protein. Some binding calls cover weakened binding; strength is not graded here.

Molecular target: T1, endogenous MDM4 (human (endogenous in NB-1691 and LA1-55N)), O15151
T1 chain: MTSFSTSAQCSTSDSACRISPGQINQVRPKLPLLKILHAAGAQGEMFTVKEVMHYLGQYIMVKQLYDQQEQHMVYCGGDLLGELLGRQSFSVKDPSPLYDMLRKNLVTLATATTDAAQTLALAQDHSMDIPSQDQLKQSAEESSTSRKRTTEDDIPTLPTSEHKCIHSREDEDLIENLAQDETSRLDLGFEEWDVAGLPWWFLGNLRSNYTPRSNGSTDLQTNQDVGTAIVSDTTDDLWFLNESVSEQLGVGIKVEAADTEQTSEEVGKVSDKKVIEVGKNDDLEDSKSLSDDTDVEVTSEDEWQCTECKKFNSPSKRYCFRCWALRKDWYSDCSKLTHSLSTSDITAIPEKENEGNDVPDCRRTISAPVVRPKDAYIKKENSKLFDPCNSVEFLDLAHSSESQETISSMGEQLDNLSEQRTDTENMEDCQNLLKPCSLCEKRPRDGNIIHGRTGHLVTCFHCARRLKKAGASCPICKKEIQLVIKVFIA
Assay: cross-linking; DSS (0.25, 0.5, 1 mM) on suspended NB-1691 and LA1-55N cells, 30 min at room temperature, quenched with TBS, lysed, Western blot of endogenous proteins; NB-1691 also with or without XIAP IRES RNA
Conditions: remark: other sources report otherwise

B1: endogenous MDM4, O15151 1-490 (protein)
chain: T1 chain
With B1 the binding was “binds”.
